Earlier results as cited in patent publication US20030083241A1, “Use of somatostatin receptor agonists in the treatment of human disorders of sleep hypoxia and oxygen deprivation” (priority 2001, published 2003).
For at least one compound, name, drawing or mass did not settle the structure.

Key:
GHRH hormone secretion = details: in vivo; cited from earlier work
[1] = test system: TNF-alpha, Interleukin-1 beta and Interleukin-6; details: cited from earlier work
peripheral chemoreflex = details: in vivo; cited from earlier work
[2] = test system: lower esophageal sphincter; details: normal humans; cited from earlier work

## C[C@H](N)C(=O)NCC(=O)N[C@H]1CSSC[C@@H](C(=O)O)NC(=O)[C@H](CO)NC(=O)[C@H]([C@@H](C)O)NC(=O)[C@H](Cc2ccccc2)NC(=O)[C@H]([C@@H](C)O)NC(=O)[C@H](CCCCN)NC(=O)[C@H](Cc2c[nH]c3ccccc23)NC(=O)[C@H](Cc2ccccc2)NC(=O)[C@H](Cc2ccccc2)NC(=O)[C@H](CC(N)=O)NC(=O)[C@H](CCCCN)NC1=O [somatostatin]
GHRH hormone secretion
  GHRH hormone secretion: inhibited
[1]
  secretion of TNF-alpha, Interleukin-1 beta and Interleukin-6: inhibit
Peripheral chemoreflex
  peripheral chemoreflex sensitivity to carbon dioxide: reduced
[2]
  basal esophageal LESP: no effect
  frequency of post-prandial TLESP relaxation events: no effect
